Reference: patent publication US20060270622A1
No constants are given. Whether binding was seen depends on the method and setting. Some results given as binding are weak or reduced against the parent protein; the word gives no strength.

Sequences of proteins named here, by UniProt entry; tags and fusion partners are left off. A change or cut given only in a name is not applied to a line headed by its entry. Residues count along the entry.
UniProt P07357: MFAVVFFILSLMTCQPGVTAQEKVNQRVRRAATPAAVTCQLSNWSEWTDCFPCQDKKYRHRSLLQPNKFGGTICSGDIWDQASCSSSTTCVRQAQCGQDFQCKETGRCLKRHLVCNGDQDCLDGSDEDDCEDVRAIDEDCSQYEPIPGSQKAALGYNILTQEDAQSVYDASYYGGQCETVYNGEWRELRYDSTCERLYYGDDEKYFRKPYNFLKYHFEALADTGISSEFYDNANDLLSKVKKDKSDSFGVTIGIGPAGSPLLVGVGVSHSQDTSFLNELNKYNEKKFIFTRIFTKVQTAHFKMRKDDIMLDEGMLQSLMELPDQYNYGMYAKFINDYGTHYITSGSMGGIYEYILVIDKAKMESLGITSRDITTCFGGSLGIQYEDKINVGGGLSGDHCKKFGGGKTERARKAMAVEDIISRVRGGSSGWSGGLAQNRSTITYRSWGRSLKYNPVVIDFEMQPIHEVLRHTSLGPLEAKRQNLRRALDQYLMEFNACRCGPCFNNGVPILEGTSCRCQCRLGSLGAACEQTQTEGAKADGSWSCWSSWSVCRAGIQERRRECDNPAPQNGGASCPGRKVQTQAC
UniProt P07358: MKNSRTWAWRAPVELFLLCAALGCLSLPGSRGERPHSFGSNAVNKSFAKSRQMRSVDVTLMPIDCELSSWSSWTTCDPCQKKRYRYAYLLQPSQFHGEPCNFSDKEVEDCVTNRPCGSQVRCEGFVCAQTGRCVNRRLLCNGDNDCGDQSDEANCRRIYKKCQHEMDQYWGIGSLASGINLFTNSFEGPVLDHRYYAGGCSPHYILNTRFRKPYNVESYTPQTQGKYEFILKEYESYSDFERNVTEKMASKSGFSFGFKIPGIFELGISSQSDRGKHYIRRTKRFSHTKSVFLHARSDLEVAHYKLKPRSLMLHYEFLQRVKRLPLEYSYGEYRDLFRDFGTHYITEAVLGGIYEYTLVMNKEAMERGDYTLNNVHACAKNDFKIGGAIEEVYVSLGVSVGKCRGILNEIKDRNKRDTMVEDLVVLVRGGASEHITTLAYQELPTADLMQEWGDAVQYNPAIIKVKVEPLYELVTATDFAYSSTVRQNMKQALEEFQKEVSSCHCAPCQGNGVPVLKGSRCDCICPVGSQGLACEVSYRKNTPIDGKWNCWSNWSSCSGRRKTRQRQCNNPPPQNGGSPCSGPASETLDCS
UniProt P07360: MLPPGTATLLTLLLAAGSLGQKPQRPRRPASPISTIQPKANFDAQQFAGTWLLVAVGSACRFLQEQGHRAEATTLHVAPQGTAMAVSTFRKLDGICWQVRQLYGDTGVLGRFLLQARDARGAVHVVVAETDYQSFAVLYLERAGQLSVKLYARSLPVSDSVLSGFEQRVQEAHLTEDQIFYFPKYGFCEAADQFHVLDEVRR
UniProt P02748, residues 22-559: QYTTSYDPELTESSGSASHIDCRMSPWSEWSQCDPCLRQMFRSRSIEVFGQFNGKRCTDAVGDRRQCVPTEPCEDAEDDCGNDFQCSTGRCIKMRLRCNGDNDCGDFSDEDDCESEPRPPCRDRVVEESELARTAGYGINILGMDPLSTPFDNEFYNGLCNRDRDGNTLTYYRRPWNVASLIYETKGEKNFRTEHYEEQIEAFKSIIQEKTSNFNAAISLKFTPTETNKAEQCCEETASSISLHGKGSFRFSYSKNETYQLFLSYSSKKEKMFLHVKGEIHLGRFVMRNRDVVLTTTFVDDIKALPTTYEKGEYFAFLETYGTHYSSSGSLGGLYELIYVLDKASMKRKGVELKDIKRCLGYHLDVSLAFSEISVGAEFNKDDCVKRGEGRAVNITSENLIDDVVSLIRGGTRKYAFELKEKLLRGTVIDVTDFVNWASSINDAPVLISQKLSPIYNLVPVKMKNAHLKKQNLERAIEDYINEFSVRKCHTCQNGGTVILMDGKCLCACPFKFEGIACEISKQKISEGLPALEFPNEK
UniProt P38646: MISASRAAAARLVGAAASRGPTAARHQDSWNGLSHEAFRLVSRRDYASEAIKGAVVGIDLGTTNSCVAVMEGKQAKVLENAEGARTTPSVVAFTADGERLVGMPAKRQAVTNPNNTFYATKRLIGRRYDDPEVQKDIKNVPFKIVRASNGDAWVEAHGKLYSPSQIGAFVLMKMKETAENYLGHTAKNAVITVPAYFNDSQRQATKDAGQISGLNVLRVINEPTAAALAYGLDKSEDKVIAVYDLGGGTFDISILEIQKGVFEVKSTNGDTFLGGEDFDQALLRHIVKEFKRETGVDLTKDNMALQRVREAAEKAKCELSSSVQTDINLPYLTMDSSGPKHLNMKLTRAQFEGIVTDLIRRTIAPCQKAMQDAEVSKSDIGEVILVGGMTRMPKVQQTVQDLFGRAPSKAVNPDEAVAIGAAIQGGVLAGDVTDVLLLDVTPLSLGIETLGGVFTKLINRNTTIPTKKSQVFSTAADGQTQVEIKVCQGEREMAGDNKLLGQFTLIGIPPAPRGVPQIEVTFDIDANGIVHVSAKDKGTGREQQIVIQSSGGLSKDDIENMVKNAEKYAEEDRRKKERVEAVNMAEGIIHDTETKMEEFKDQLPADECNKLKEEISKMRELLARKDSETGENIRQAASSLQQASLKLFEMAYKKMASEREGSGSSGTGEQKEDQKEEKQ

Key:
[1] = biological target: human C8 (human) (UniProt P07357+P07358+P07360); assay: ELISA, C8 attached to microtiter plates (data not shown)
[2] = biological target: purified human complement C9 (human) (UniProt P02748); assay: ELISA, C9 attached to microtiter plates (data not shown)
[3] = biological target: purified human complement C9 (human) (UniProt P02748); assay: blot overlay with K562 cell lysate pre-mixed with soluble C9 as competitor
[4] = biological target: purified human complement C9 (human) (UniProt P02748); assay: blot overlay (FIG. 7 legend), K562 cell lysate on blotted C9, anti-mortalin detection
[5] = biological target: purified human complement C9 (human) (UniProt P02748); assay: blot overlay: C9 on nitrocellulose after reducing SDS-PAGE, incubated with K562 cell lysate, detected with anti-mortalin antibody

Measured: binding

mortalin (mot-2, GRP75; gene: HSPA9B; GenBank Identifier gi:24234688) (from UniProt P38646 47-679)
binds: all assays above
